Counter-ions that a name gives are not always drawn. ± gives the standard deviation of the averaged measurements. The list shows a part of the results. These are raw signals, not scaled to a control.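 Ribosome-assembly readouts in HeLa cells were imaged via ENP1 staining, with or without export block, or inducible tagged ribosomal protein reporters. Machine learning classified per-cell signal location versus solvent (DMSO) controls. Hits surpassed the DMSO false-positive mean by five standard deviations and were visually confirmed; three biological replicates.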

For assay [1], the system named is HeLa K (ENP1 immunofluorescence, +LMB). In words: fraction of cells with nucleolar or nucleolar/nucleoplasmic ENP1 signal (MainHitrate); higher = more cells with nucleolar/nuclear readout signal (for ENP1 -LMB: less RNAPI inhibition; for +LMB ENP1 and RP reporters: stronger nuclear/nucleolar retention, i.e. ribosome biogenesis defect). The following applies: concentration: 1 µM; treatment time: 6 h; ENP1 +LMB; leptomycin B: 20 nM, last 1.5 h.

The subject of assay [2] is HeLa K (ENP1 immunofluorescence, no LMB). The description is as above. The following applies: concentration: 1 µM; treatment time: 6 h; ENP1 -LMB; leptomycin B: none.
The next assay concerns HeLa RPS2-YFP reporter. In words: fraction of reporter-positive cells with nuclear (nucleolar or nucleolar/nucleoplasmic) RPS2-YFP (MainHitrate); higher = more cells with nucleolar/nuclear readout signal (for ENP1 -LMB: less RNAPI inhibition; for +LMB ENP1 and RP reporters: stronger nuclear/nucleolar retention, i.e. ribosome biogenesis defect). The following applies: concentration: 1 µM; treatment time: 6 h.

A further assay deals with HeLa RPL29-GFP reporter. In words: fraction of reporter-positive cells with nuclear (nucleolar or nucleolar/nucleoplasmic) RPL29-GFP (MainHitrate); higher = more cells with nucleolar/nuclear readout signal (for ENP1 -LMB: less RNAPI inhibition; for +LMB ENP1 and RP reporters: stronger nuclear/nucleolar retention, i.e. ribosome biogenesis defect). As to conditions: concentration: 1 µM; treatment time: 6 h.

On to `Oc1ccc(/C=C/c2cc(O)cc(O)c2)cc1` [Resveratrol], for which the fraction in assay [1] came to 0.103 ± 0.071; in assay [2] it was 0.9983 ± 0.0029. In addition, the “fraction of reporter-positive cells with nuclear” value (“fraction … with nuclear” for short) came to 0.105 ± 0.077 in the assay on HeLa RPS2-YFP reporter and 0.21 ± 0.065 in the assay with HeLa RPL29-GFP reporter.

With `COc1ccc(O)cc1` [Mequinol], the fraction in assay [1] amounted to 0.0988 ± 0.15; in assay [2], 0.991 ± 0.015. The figures for the “fraction … with nuclear” value with HeLa RPS2-YFP reporter and with HeLa RPL29-GFP reporter were 0.112 ± 0.11 and 0.226 ± 0.068, respectively.

As to `CN[C@@H]1[C@H](O)[C@H](NC)[C@H]2O[C@@]3(O)C(=O)C[C@@H](C)O[C@H]3O[C@@H]2[C@H]1O` [Spectinomycin  hydrochloride], the fraction was 0.148 ± 0.22 in assay [1] and 0.994 ± 0.01 in assay [2]. Moreover, the “fraction … with nuclear” value in the assay on HeLa RPS2-YFP reporter was determined as 0.108 ± 0.093; in the assay on HeLa RPL29-GFP reporter, 0.226 ± 0.086.

Regarding `CCOC(=O)c1ccc(OC(=O)CCCCCNC(=N)N)cc1` [Gabexate mesylate], the fraction in assay [1] was found to be 0.0698 ± 0.071; in assay [2], 0.9973 ± 0.0047. Further, the figures for the “fraction … with nuclear” value with HeLa RPS2-YFP reporter and in the assay on HeLa RPL29-GFP reporter were 0.118 ± 0.051 and 0.262 ± 0.073, respectively.

Regarding `COc1ncnc(NS(=O)(=O)c2ccc(N)cc2)c1OC` [Sulfadoxine (Sulphadoxine)], the fraction came to 0.115 ± 0.15 in assay [1] and 0.993 ± 0.012 in assay [2]. For the same compound, the “fraction … with nuclear” value turned out to be 0.134 ± 0.088 in the assay with HeLa RPS2-YFP reporter and 0.226 ± 0.082 with HeLa RPL29-GFP reporter.

`Clc1ccc(C(Cn2ccnc2)OCc2ccc(Sc3ccccc3)cc2)c(Cl)c1` (centres undefined) [Fenticonazole nitrate]: the fraction in assay [1] was found to be 0.139 ± 0.2; in assay [2] it was 0.991 ± 0.016. Moreover, the “fraction … with nuclear” value with HeLa RPS2-YFP reporter turned out to be 0.14 ± 0.1; in the assay with HeLa RPL29-GFP reporter, 0.223 ± 0.052.

Consider `C[C@]12CCC(=O)C=C1[C@@H]1C[C@@H]1[C@H]1[C@@H]3[C@@H]4C[C@@H]4[C@@]4(CCC(=O)O4)[C@@]3(C)CC[C@@H]12` [Drospirenone], for which the fraction came out at 0.103 ± 0.14 in assay [1] and 0.9989 ± 0.0018 in assay [2]. The “fraction … with nuclear” value with HeLa RPS2-YFP reporter is 0.123 ± 0.099; with HeLa RPL29-GFP reporter, 0.202 ± 0.058.

Regarding `Nc1nc(CC(=O)Nc2ccc(CCNC[C@H](O)c3ccccc3)cc2)cs1` [Mirabegron (YM178)], the fraction in assay [1] was determined as 0.0917 ± 0.13; in assay [2], 0.991 ± 0.015. In addition, the entries for the “fraction … with nuclear” value with HeLa RPS2-YFP reporter and with HeLa RPL29-GFP reporter were 0.115 ± 0.11 and 0.211 ± 0.07, respectively.

Consider `CNC[C@H](O)[C@@H](O)[C@H](O)[C@H](O)CO` [Meglumine], for which the values for the fraction in assay [1] and in assay [2] were 0.0659 ± 0.079 and 0.992 ± 0.014, respectively. Also, the “fraction … with nuclear” value in the assay with HeLa RPS2-YFP reporter amounted to 0.0942 ± 0.081; in the assay with HeLa RPL29-GFP reporter, 0.227 ± 0.079.

On to `CC1(C)S[C@@H]2[C@H](NC(=O)C(C(=O)O)c3ccccc3)C(=O)N2[C@H]1C(=O)O` (some centres undefined) [Carbenicillin disodium], for which the fraction in assay [1] is 0.0752 ± 0.097; in assay [2], 0.976 ± 0.042. For the same compound, the “fraction … with nuclear” value in the assay with HeLa RPS2-YFP reporter is 0.105 ± 0.077; in the assay on HeLa RPL29-GFP reporter, 0.218 ± 0.063.

Regarding `O=C(C[S+]([O-])Cc1ccco1)NC/C=C\COc1cc(CN2CCCCC2)ccn1` (centres undefined) [Lafutidine], the fraction worked out at 0.104 ± 0.16 in assay [1] and 0.991 ± 0.016 in assay [2]. Besides, the “fraction … with nuclear” value in the assay on HeLa RPS2-YFP reporter came to 0.123 ± 0.084; with HeLa RPL29-GFP reporter, 0.236 ± 0.086.

As to `O=C(CCNNC(=O)c1ccncc1)NCc1ccccc1` [Nialamide], the fraction was 0.165 ± 0.24 in assay [1] and 0.9958 ± 0.0073 in assay [2]. Also, the “fraction … with nuclear” value in the assay with HeLa RPS2-YFP reporter turned out to be 0.193 ± 0.17; in the assay on HeLa RPL29-GFP reporter, 0.274 ± 0.23.

Regarding `CC1Cc2ccccc2N1NC(=O)c1ccc(Cl)c(S(N)(=O)=O)c1` (centres undefined) [Indapamide (Lozol)], the fraction was 0.0863 ± 0.09 in assay [1] and 0.9989 ± 0.002 in assay [2]. Besides, the “fraction … with nuclear” value was 0.136 ± 0.11 in the assay with HeLa RPS2-YFP reporter and 0.209 ± 0.048 in the assay with HeLa RPL29-GFP reporter.

Regarding `CC1COc2c(N3CCN(C)CC3)c(F)cc3c(=O)c(C(=O)O)cn1c23` (centres undefined) [Ofloxacin (Floxin)], the fraction was 0.0495 ± 0.022 in assay [1] and 0.9974 ± 0.0045 in assay [2]. The “fraction … with nuclear” value in the assay on HeLa RPS2-YFP reporter came to 0.099 ± 0.087; in the assay with HeLa RPL29-GFP reporter, 0.201 ± 0.036.

As to `CCC(=O)O[C@]1(C(=O)CCl)[C@@H](C)C[C@H]2[C@@H]3C[C@H](F)C4=CC(=O)C=C[C@]4(C)[C@@]3(F)[C@@H](O)C[C@@]21C` [Halobetasol Propionate], the fraction is 0.0817 ± 0.11 in assay [1] and 0.986 ± 0.023 in assay [2]. Further, the entries for the “fraction … with nuclear” value with HeLa RPS2-YFP reporter and in the assay on HeLa RPL29-GFP reporter were 0.138 ± 0.13 and 0.217 ± 0.061, respectively.

In the case of `OC(CNCC(O)C1CCc2cc(F)ccc2O1)C1CCc2cc(F)ccc2O1` (centres undefined) [Nebivolol (Bystolic)], the fraction in assay [1] is 0.0658 ± 0.061; in assay [2], 0.9985 ± 0.0025. In addition, the “fraction … with nuclear” value in the assay on HeLa RPS2-YFP reporter worked out at 0.122 ± 0.11; in the assay on HeLa RPL29-GFP reporter, 0.215 ± 0.06.

For the compound `O=C(O)COCCN1CCN(C(c2ccccc2)c2ccc(Cl)cc2)CC1` (centres undefined) [Cetirizine Dihydrochloride], the fraction in assay [1] is 0.0597 ± 0.04; in assay [2], 0.9988 ± 0.0022. In addition, the “fraction … with nuclear” value with HeLa RPS2-YFP reporter amounted to 0.214 ± 0.23; in the assay with HeLa RPL29-GFP reporter, 0.438 ± 0.36.

For `CCCCC[C@H](O)/C=C/[C@H]1[C@H](O)CC(=O)[C@@H]1CCCCCCC(=O)O` [Alprostadil (Caverject)], the fraction in assay [1] was 0.0796 ± 0.081; in assay [2], 0.9972 ± 0.0049. Further, the results for the “fraction … with nuclear” value in the assay on HeLa RPS2-YFP reporter and in the assay on HeLa RPL29-GFP reporter were 0.0989 ± 0.07 and 0.215 ± 0.054, respectively.

`Clc1ccccc1C(c1ccccc1)(c1ccccc1)n1ccnc1` [Clotrimazole (Canesten)]: the fraction amounted to 0.409 ± 0.51 in assay [1] and 0.9985 ± 0.0025 in assay [2]. For the same compound, the “fraction … with nuclear” value in the assay on HeLa RPS2-YFP reporter came out at 0.108 ± 0.052; in the assay with HeLa RPL29-GFP reporter it was 0.215 ± 0.063.

Consider `CCN(CC)CC#CCOC(=O)C(O)(c1ccccc1)C1CCCCC1` (centres undefined) [Oxybutynin chloride], for which the fraction in assay [1] stood at 0.11 ± 0.14; in assay [2], 0.9984 ± 0.0028. Further, the “fraction … with nuclear” value in the assay on HeLa RPS2-YFP reporter stood at 0.124 ± 0.091; in the assay on HeLa RPL29-GFP reporter it was 0.192 ± 0.063.

As to `CCOc1nc2cccc(C(=O)OCc3oc(=O)oc3C)c2n1Cc1ccc(-c2ccccc2-c2noc(=O)[nH]2)cc1` [Azilsartan Medoxomil (TAK-491)], the values for the fraction in assay [1] and in assay [2] were 0.0843 ± 0.082 and 0.994 ± 0.011, respectively. In addition, the “fraction … with nuclear” value stood at 0.136 ± 0.094 in the assay on HeLa RPS2-YFP reporter and 0.213 ± 0.1 in the assay with HeLa RPL29-GFP reporter.

With `CC(C)[C@H](N)C(=O)OCCOCn1cnc2c(=O)nc(N)[nH]c21` [Valaciclovir HCl], the fraction in assay [1] is 0.112 ± 0.14; in assay [2] it was 0.99 ± 0.018. Moreover, the entries for the “fraction … with nuclear” value with HeLa RPS2-YFP reporter and in the assay with HeLa RPL29-GFP reporter were 0.122 ± 0.085 and 0.24 ± 0.073, respectively.

In the case of `O=C(OCC(O)CO)c1ccccc1Nc1ccnc2cc(Cl)ccc12` (centres undefined) [Glafenine HCl], the results for the fraction in assay [1] and in assay [2] were 0.14 ± 0.15 and 0.9993 ± 0.0012, respectively. The “fraction … with nuclear” value in the assay with HeLa RPS2-YFP reporter was determined as 0.195 ± 0.18; with HeLa RPL29-GFP reporter, 0.282 ± 0.22.

On to `CCc1oc2ccccc2c1C(=O)c1cc(Br)c(O)c(Br)c1` [Benzbromarone], for which the fraction in assay [1] was 0.0721 ± 0.1; in assay [2] it was 0.972 ± 0.049. In addition, the “fraction … with nuclear” value stood at 0.131 ± 0.092 in the assay with HeLa RPS2-YFP reporter and 0.208 ± 0.083 in the assay with HeLa RPL29-GFP reporter.

`O=C(O)c1cn(-c2ccc(F)cc2)c2cc(N3CCNCC3)c(F)cc2c1=O` [Sarafloxacin HCl]: the fraction is 0.0881 ± 0.12 in assay [1] and 0.99 ± 0.017 in assay [2]. Moreover, the “fraction … with nuclear” value in the assay on HeLa RPS2-YFP reporter worked out at 0.0847 ± 0.061; in the assay on HeLa RPL29-GFP reporter, 0.245 ± 0.1.

`Cc1oncc1C(=O)Nc1ccc(C(F)(F)F)cc1` [Leflunomide]: the figures for the fraction in assay [1] and in assay [2] were 0.0906 ± 0.095 and 0.9988 ± 0.002, respectively. The “fraction … with nuclear” value in the assay on HeLa RPS2-YFP reporter was 0.13 ± 0.092; in the assay with HeLa RPL29-GFP reporter, 0.212 ± 0.091.

The record behind these values is the supplement of paper PMC12542422.
